# Source: the supplement of paper PMC8728848
# The list shows a part of the results.
# B1: AT3G44510(29) (Arabidopsis thaliana), F4J341 (protein)
# chain: MEEHLQGRIKLHDGRYLAYKERGVPKDDAKFTIVLVHGFGSSKDMNFNVSQELVNEIGIYFVLYDRAGYGESDPNPKRSLKSEAYDVQELADGLEIGSRFYLIGISMGSYTVWSCLKHIPQRLAGVAMVAPVVNFRWPSIPKSLMPKDYRREVAKWSVWIANYFPGLLQWLVTQNMFSTTSMLEKNPVYFNDQDIEVLKHIKGFPMLTKEKLRERGVFGTLRSDFLVAFGDWDFDPADLPDPSLSGPEKGSSSVHIWQGYEDKVMPFQLQRCLCRKLPWIRYHEVPKGGHLIVHYDGICDAILKSLLLGEDLPMYKPKAVITEPA
# Tests used:
# Experiment in all cases: glycan array binding signal (z-score within array); higher = stronger binding
# Conditions in all cases: glycan notation: IUPAC condensed, linker removed
# [1] = target: Fuc(a1-2)Gal(b1-4)[Fuc(a1-3)]GlcNAc
# How it was run: (§1)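 Columns mapping to the same glycan were averaged after glycan names were converted to IUPAC-condensed notation. The data come from 3228 arrays in the Consortium for Functional Glycomics database, limited to those with an available protein sequence. Binding is reported as a within-array Z-score averaged across arrays of one protein sequence and across linkers.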
# [2] = target: Fuc(a1-2)Gal(b1-4)[Fuc(a1-3)]GlcNAc(b1-2)Man(a1-3)[Fuc(a1-2)Gal(b1-4)[Fuc(a1-3)]GlcNAc(b1-2)Man(a1-6)]Man(b1-4)GlcNAc(b1-4)[Fuc(a1-6)]GlcNAc
# How it was run: as §1
# [3] = target: Fuc(a1-2)Gal(b1-4)[Fuc(a1-3)]GlcNAc(b1-2)[Fuc(a1-2)Gal(b1-4)[Fuc(a1-3)]GlcNAc(b1-4)]Man(a1-3)[Fuc(a1-2)Gal(b1-4)[Fuc(a1-3)]GlcNAc(b1-2)Man(a1-6)]Man(b1-4)GlcNAc(b1-4)GlcNAc
# How it was run: as §1
# [4] = target: Fuc(a1-2)Gal(b1-4)[Fuc(a1-3)]GlcNAc(b1-3)Gal(b1-4)[Fuc(a1-3)]GlcNAc
# How it was run: as §1
# [5] = target: Fuc(a1-2)Gal(b1-4)[Fuc(a1-3)]GlcNAc(b1-3)Gal(b1-4)[Fuc(a1-3)]GlcNAc(b1-3)Gal(b1-4)[Fuc(a1-3)]GlcNAc
# How it was run: as §1
# [6] = target: Fuc(a1-2)Gal(b1-4)[Fuc(a1-3)]GlcNAc(b1-3)GalNAc
# How it was run: as §1
# [7] = target: Fuc(a1-2)Gal(b1-4)[Fuc(a1-3)]GlcNAc(b1-3)[Neu5Ac(a2-6)Gal(b1-4)GlcNAc(b1-6)]Gal(b1-4)Glc
# How it was run: as §1
# [8] = target: Fuc(a1-2)Gal3S(b1-4)GlcNAc
# How it was run: as §1
# [9] = target: Fuc(a1-2)Gal6S(b1-3)GlcNAc
# How it was run: as §1
# [10] = target: Fuc(a1-2)Gal6S(b1-3)GlcNAc6S
# How it was run: as §1
# Fuc(a1-2)Gal6S(b1-4)Glc = target: Fuc(a1-2)Gal6S(b1-4)Glc
# How it was run: as §1
# [11] = target: Fuc(a1-2)Gal6S(b1-4)Glc6S
# How it was run: as §1
# Fuc(a1-2)[Gal(a1-3)]Gal = target: Fuc(a1-2)[Gal(a1-3)]Gal
# How it was run: as §1
# [12] = target: Fuc(a1-2)[Gal(a1-3)]Gal(b1-3)GalNAc
# How it was run: as §1
# [13] = target: Fuc(a1-2)[Gal(a1-3)]Gal(b1-3)GalNAc(b1-3)Gal(a1-4)Gal(b1-4)Glc
# How it was run: as §1
# [14] = target: Fuc(a1-2)[Gal(a1-3)]Gal(b1-3)GlcNAc
# How it was run: as §1
# [15] = target: Fuc(a1-2)[Gal(a1-3)]Gal(b1-3)GlcNAc(b1-2)Man(a1-3)[Fuc(a1-2)[Gal(a1-3)]Gal(b1-3)GlcNAc(b1-2)Man(a1-6)]Man(b1-4)GlcNAc(b1-4)GlcNAc
# How it was run: as §1
# [16] = target: Fuc(a1-2)[Gal(a1-3)]Gal(b1-3)GlcNAc(b1-2)Man(a1-3)[Fuc(a1-2)[Gal(a1-3)]Gal(b1-3)GlcNAc(b1-2)Man(a1-6)]Man(b1-4)GlcNAc(b1-4)[Fuc(a1-6)]GlcNAc
# How it was run: as §1
# [17] = target: Fuc(a1-2)[Gal(a1-3)]Gal(b1-3)GlcNAc(b1-3)GalNAc
# How it was run: as §1
# [18] = target: Fuc(a1-2)[Gal(a1-3)]Gal(b1-3)GlcNAc(b1-6)GalNAc
# How it was run: as §1
# [19] = target: Fuc(a1-2)[Gal(a1-3)]Gal(b1-4)Glc
# How it was run: as §1
# [20] = target: Fuc(a1-2)[Gal(a1-3)]Gal(b1-4)GlcNAc
# How it was run: as §1
# [21] = target: Fuc(a1-2)[Gal(a1-3)]Gal(b1-4)GlcNAc(b1-2)Man
# How it was run: as §1
# [22] = target: Fuc(a1-2)[Gal(a1-3)]Gal(b1-4)GlcNAc(b1-2)Man(a1-3)[Fuc(a1-2)[Gal(a1-3)]Gal(b1-4)GlcNAc(b1-2)Man(a1-6)]Man(b1-4)GlcNAc(b1-4)GlcNAc
# How it was run: as §1
# [23] = target: Fuc(a1-2)[Gal(a1-3)]Gal(b1-4)GlcNAc(b1-2)Man(a1-3)[Fuc(a1-2)[Gal(a1-3)]Gal(b1-4)GlcNAc(b1-2)Man(a1-6)]Man(b1-4)GlcNAc(b1-4)[Fuc(a1-6)]GlcNAc
# How it was run: as §1
# [24] = target: Fuc(a1-2)[Gal(a1-3)]Gal(b1-4)GlcNAc(b1-3)GalNAc
# How it was run: as §1
# [25] = target: Fuc(a1-2)[Gal(a1-3)]Gal(b1-4)GlcNAc(b1-3)[Fuc(a1-2)[Gal(a1-3)]Gal(b1-4)GlcNAc(b1-6)]GalNAc
# How it was run: as §1
# [26] = target: Fuc(a1-2)[Gal(a1-3)]Gal(b1-4)GlcNAc(b1-6)GalNAc
# How it was run: as §1
# [27] = target: Fuc(a1-2)[Gal(a1-3)]Gal(b1-4)[Fuc(a1-3)]Glc
# How it was run: as §1
# [28] = target: Fuc(a1-2)[Gal(a1-3)]Gal(b1-4)[Fuc(a1-3)]GlcNAc
# How it was run: as §1
# [29] = target: Fuc(a1-2)[Gal(a1-3)]Gal(b1-4)[Fuc(a1-3)]GlcNAc(b1-3)GalNAc
# How it was run: as §1
# [30] = target: Fuc(a1-2)[Gal(a1-4)]Gal(b1-4)GlcNAc
# How it was run: as §1
# [31] = target: Fuc(a1-2)[GalNAc(a1-3)]Gal
# How it was run: as §1
# [32] = target: Fuc(a1-2)[GalNAc(a1-3)]Gal(b1-3)GalNAc(a1-3)[Fuc(a1-2)]Gal(b1-4)GlcNAc
# How it was run: as §1
# [33] = target: Fuc(a1-2)[GalNAc(a1-3)]Gal(b1-3)GalNAc(b1-3)Gal(a1-4)Gal(b1-4)Glc
# How it was run: as §1
# [34] = target: Fuc(a1-2)[GalNAc(a1-3)]Gal(b1-3)GlcNAc
# How it was run: as §1
# [35] = target: Fuc(a1-2)[GalNAc(a1-3)]Gal(b1-3)GlcNAc(b1-2)Man(a1-3)[Fuc(a1-2)[GalNAc(a1-3)]Gal(b1-3)GlcNAc(b1-2)Man(a1-6)]Man(b1-4)GlcNAc(b1-4)GlcNAc
# How it was run: as §1
# [36] = target: Fuc(a1-2)[GalNAc(a1-3)]Gal(b1-3)GlcNAc(b1-2)Man(a1-3)[Fuc(a1-2)[GalNAc(a1-3)]Gal(b1-3)GlcNAc(b1-2)Man(a1-6)]Man(b1-4)GlcNAc(b1-4)[Fuc(a1-6)]GlcNAc
# How it was run: as §1
binder,measurement,setting,value
B1,glycan array binding signal (z-score),[1],-0.381
same,glycan array binding signal (z-score),[2],-0.458
same,glycan array binding signal (z-score),[3],-0.398
same,glycan array binding signal (z-score),[4],-0.951
same,glycan array binding signal (z-score),[5],0.298
same,glycan array binding signal (z-score),[6],0.75
same,glycan array binding signal (z-score),[7],-0.039
same,glycan array binding signal (z-score),[8],3.33
same,glycan array binding signal (z-score),[9],-0.767
same,glycan array binding signal (z-score),[10],-0.478
same,glycan array binding signal (z-score),Fuc(a1-2)Gal6S(b1-4)Glc,1.32
same,glycan array binding signal (z-score),[11],0.18
same,glycan array binding signal (z-score),Fuc(a1-2)[Gal(a1-3)]Gal,2.08
same,glycan array binding signal (z-score),[12],-0.424
same,glycan array binding signal (z-score),[13],0.144
same,glycan array binding signal (z-score),[14],-0.13
same,glycan array binding signal (z-score),[15],0.699
same,glycan array binding signal (z-score),[16],-0.337
same,glycan array binding signal (z-score),[17],-0.895
same,glycan array binding signal (z-score),[18],0.353
same,glycan array binding signal (z-score),[19],0.58
same,glycan array binding signal (z-score),[20],-0.253
same,glycan array binding signal (z-score),[21],0.038
same,glycan array binding signal (z-score),[22],-0.31
same,glycan array binding signal (z-score),[23],-0.079
same,glycan array binding signal (z-score),[24],-0.202
same,glycan array binding signal (z-score),[25],0.073
same,glycan array binding signal (z-score),[26],0.587
same,glycan array binding signal (z-score),[27],-0.186
same,glycan array binding signal (z-score),[28],0.02
same,glycan array binding signal (z-score),[29],-0.516
same,glycan array binding signal (z-score),[30],0.172
same,glycan array binding signal (z-score),[31],-0.164
same,glycan array binding signal (z-score),[32],0.439
same,glycan array binding signal (z-score),[33],-0.123
same,glycan array binding signal (z-score),[34],-0.091
same,glycan array binding signal (z-score),[35],-0.304
same,glycan array binding signal (z-score),[36],-0.313

# An excerpt of these results, as tab-separated lines.
binder	measurement	setting	value
B1	glycan array binding signal (z-score)	[22]	-0.31
same	glycan array binding signal (z-score)	[23]	-0.079
same	glycan array binding signal (z-score)	[24]	-0.202
same	glycan array binding signal (z-score)	[25]	0.073
same	glycan array binding signal (z-score)	[26]	0.587
same	glycan array binding signal (z-score)	[27]	-0.186
same	glycan array binding signal (z-score)	[28]	0.02
same	glycan array binding signal (z-score)	[29]	-0.516
same	glycan array binding signal (z-score)	[30]	0.172
same	glycan array binding signal (z-score)	[31]	-0.164
same	glycan array binding signal (z-score)	[32]	0.439
